The text below walks through data of patent publication US6663881B2 (priority 1993, dated 2003).

In this test the test system is Vascular smooth muscle (BO54) cells. It is filed as cell-based, baboon.

Regarding `CN[C@@H]1C[C@H]2O[C@@](C)([C@@H]1OC)n1c3ccccc3c3c4c(c5c6ccccc6n2c5c31)C(=O)NC4` [staurosporin], the “DNA synthesis inhibition compared with protein synthesis inhibition” value was “to a greater extent than they inhibited protein synthesis”.
